Measured values published in article PMC11815563.
These are yes or no findings as the source states them, for the method shown. In cells and extracts the contact can be indirect. Some entries that bind do so weakly or less than the wild type. One block for each substance: values may come before it.

Amino acid sequences for entries named in this document (tags omitted).
UniProt P40763: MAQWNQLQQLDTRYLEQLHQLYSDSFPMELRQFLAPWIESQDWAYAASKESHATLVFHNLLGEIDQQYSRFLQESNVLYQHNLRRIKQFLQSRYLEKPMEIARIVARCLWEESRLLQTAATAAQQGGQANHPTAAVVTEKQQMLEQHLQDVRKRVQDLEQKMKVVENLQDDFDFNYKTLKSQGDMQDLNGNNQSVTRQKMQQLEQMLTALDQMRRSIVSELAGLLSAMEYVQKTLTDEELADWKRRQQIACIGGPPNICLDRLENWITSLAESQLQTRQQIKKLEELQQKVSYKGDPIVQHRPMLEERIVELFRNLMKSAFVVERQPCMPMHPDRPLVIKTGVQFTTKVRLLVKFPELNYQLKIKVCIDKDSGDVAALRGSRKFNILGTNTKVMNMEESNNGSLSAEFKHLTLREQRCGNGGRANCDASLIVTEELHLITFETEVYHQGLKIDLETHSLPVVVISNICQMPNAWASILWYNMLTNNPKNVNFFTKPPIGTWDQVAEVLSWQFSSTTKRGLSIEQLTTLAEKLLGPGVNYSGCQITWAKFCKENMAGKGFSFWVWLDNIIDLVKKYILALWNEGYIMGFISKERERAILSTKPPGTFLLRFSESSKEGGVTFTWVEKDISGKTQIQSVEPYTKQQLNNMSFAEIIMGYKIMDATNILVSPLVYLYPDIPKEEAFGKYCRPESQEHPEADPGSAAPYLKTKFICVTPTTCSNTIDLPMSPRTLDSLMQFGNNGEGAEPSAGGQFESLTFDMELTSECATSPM
UniProt Q9HCL3: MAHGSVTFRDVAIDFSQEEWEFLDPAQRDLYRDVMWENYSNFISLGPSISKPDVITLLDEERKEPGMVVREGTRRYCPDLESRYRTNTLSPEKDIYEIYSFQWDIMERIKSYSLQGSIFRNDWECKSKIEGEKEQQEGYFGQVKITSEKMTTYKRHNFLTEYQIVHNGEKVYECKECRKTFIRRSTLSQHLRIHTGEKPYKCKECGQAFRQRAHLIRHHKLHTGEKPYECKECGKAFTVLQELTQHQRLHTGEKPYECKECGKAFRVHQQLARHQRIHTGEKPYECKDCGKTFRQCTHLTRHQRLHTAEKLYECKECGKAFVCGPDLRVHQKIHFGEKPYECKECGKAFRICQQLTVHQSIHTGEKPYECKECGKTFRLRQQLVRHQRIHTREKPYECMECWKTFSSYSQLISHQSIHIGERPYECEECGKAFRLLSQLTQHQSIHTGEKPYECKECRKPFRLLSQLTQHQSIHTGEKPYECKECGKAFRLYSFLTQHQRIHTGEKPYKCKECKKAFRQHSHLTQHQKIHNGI

How the values were obtained:
His‐tagged STAT3 = His‐tagged STAT3 (UniProt P40763); test: co-IP; Flag‐ZFP14 and His‐STAT3 co‐transfected in HEK293T cells; immunoprecipitation with His‐tag antibody; RIPA lysis, A/G magnetic beads, western blot
Flag‐tagged ZFP14 = Flag‐tagged ZFP14 (UniProt Q9HCL3); test: co-IP; Flag‐ZFP14 and His‐STAT3 co‐transfected in HEK293T cells; immunoprecipitation with Flag‐tag antibody; RIPA lysis, A/G magnetic beads, western blot
[1] = target: signal transducer and activator of transcription 3 (STAT3), endogenous (human (endogenous in Caki-1 and ACHN)) (UniProt P40763); test: co-IP; endogenous proteins in Caki‐1 and ACHN cells; lysis in RIPA buffer with 1% PMSF and 1% protease inhibitor; antibody and A/G magnetic beads; western blot; IgG as control antibody

binding (His‐tagged STAT3): binds
Substance: Flag‐tagged ZFP14 (from UniProt Q9HCL3 1-533)

binding (Flag‐tagged ZFP14): binds
Substance: His‐tagged STAT3 (from UniProt P40763 1-770)

binding [1]: binds
Substance: zinc finger protein 14 (ZFP14), endogenous (from UniProt Q9HCL3 1-533)
